Here are results for 1 compound from patent US20240197804A1, “PHARMACEUTICAL AND NUTRACEUTICAL COMPOSITION COMPRISING A MIXTURE OF PLANTS FOR THE PREVENTION AND TREATMENT OF NEURODEGENERATIVE DISEASES” (LABORATOIRE AROMA SCIENCE, priority 2021, published 2024).

Assay [1] relates to mice intoxicated with the Aβ 25-35 peptide. As to the kind of experiment: Spontaneous alternation behavior test in a Y-maze (spatial working memory). The note with it: daily oral administration of 1 mg/kg, D-14 to D10; test at D8. The assay is classed as in vivo, mouse.
For assay [2] the test system is unchanged. As to the kind of experiment: Passive avoidance test (long-term contextual memory). The class given is in vivo, mouse. Particulars: daily oral administration of 1 mg/kg.

Take `COc1cc2c(cc1OC)C(=O)C(CC1CCN(Cc3ccccc3)CC1)C2` (centres unmarked) [Donepezil]: in assay [1], the “deleterious effect of Aβ 25-35 on spatial working memory (spontaneous alternation)” value is on record as “significantly avoided”. The “deleterious effect of Aβ 25-35 on long-term contextual memory (passive avoidance)” value in assay [2] is listed as “significantly avoided”.
